{
  "sequences": {"note": "Amino acid sequences for entries named in this document (tags omitted).", "UniProt P29555": "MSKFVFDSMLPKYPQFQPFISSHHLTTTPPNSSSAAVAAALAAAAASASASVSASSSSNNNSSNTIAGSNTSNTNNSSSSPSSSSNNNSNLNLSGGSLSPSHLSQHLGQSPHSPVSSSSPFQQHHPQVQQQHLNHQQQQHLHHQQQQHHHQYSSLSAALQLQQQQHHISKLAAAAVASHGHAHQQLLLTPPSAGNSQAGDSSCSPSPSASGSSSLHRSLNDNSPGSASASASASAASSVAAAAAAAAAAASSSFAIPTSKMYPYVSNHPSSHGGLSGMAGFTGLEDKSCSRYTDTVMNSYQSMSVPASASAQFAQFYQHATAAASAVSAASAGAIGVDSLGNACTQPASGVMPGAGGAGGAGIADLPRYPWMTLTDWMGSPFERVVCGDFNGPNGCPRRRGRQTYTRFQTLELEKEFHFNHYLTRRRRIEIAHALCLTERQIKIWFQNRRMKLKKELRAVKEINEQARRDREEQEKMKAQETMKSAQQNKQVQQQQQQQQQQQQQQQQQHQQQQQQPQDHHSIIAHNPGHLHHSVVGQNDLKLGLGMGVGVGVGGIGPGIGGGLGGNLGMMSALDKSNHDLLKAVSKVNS", "UniProt O46036": "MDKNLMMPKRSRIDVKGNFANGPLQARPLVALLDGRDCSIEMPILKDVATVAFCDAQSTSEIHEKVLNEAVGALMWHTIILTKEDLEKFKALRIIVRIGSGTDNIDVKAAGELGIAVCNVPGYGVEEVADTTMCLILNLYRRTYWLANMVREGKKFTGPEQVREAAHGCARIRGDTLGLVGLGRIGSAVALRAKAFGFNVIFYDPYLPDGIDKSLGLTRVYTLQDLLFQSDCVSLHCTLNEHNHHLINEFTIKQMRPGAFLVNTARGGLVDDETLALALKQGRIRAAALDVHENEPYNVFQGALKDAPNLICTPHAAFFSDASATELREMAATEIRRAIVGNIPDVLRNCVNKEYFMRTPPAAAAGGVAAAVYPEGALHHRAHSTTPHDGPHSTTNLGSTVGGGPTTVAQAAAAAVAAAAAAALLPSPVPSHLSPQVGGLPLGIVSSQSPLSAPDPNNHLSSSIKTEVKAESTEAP", "UniProt P23757": "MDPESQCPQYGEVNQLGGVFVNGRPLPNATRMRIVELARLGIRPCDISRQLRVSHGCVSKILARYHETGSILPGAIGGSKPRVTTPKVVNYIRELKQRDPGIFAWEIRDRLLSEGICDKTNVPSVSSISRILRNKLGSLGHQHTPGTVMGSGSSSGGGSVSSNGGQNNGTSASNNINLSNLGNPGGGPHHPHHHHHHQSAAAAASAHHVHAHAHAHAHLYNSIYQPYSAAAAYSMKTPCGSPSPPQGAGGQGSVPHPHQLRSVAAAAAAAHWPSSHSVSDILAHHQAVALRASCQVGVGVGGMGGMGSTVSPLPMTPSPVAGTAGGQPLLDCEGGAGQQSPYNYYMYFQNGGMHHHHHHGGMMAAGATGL", "UniProt P20009": "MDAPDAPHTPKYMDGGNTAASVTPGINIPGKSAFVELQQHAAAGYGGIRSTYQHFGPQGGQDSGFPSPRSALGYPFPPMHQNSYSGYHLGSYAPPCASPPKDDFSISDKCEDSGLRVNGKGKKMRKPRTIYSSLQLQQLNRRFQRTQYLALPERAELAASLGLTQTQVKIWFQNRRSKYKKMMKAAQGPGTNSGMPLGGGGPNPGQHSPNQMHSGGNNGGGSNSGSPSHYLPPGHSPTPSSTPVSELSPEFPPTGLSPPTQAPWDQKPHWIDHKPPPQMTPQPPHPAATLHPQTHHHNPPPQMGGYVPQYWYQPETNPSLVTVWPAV"},
  "source": "paper PMC6177257",
  "key": {"[1]": {"biological_target": "T1, VC-Exd (Extradenticle fused to the C-terminal fragment of Venus) (Drosophila (D. melanogaster)) (UniProt P40427)", "T1 sequence": "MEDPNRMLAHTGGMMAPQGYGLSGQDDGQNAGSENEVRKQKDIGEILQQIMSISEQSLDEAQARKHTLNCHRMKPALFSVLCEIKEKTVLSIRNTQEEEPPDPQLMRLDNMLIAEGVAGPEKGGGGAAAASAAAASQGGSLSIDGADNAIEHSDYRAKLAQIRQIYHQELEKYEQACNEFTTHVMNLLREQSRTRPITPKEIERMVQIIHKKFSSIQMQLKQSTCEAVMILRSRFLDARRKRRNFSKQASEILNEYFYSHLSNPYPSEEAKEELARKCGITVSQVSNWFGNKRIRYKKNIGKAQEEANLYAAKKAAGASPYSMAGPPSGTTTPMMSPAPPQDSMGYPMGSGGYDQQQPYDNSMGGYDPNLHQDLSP", "test": "split reporter; Venus-based BiFC in live Drosophila embryos; TFs fused to VN with VC-Exd; abdA-Gal4 driver, epidermis of stage 10 embryos"}, "[2]": {"biological_target": "CN-AbdA (AbdominalA fused to the N-terminal fragment of Cerulean) (Drosophila (D. melanogaster)) (UniProt P29555)", "test": "split reporter; Venus- or Cerulean-based BiFC in live Drosophila embryos; ORF-CC with VN-AbdA or CN-AbdA; abdA-Gal4 driver (epidermis, stage 10/11) or 24B-Gal4 driver (somatic mesoderm, stage 14); confocal observation"}, "[3]": {"biological_target": "VN-AbdA (AbdominalA fused to the N-terminal fragment of Venus) (Drosophila (D. melanogaster)) (UniProt P29555)", "test": "split reporter; Venus- or Cerulean-based BiFC in live Drosophila embryos; ORF-CC with VN-AbdA or CN-AbdA; abdA-Gal4 driver (epidermis, stage 10/11) or 24B-Gal4 driver (somatic mesoderm, stage 14); confocal observation"}, "[4]": {"biological_target": "VN-AbdA (AbdominalA fused to the N-terminal fragment of Venus) (Drosophila (D. melanogaster)) (UniProt P29555)", "test": "split reporter; BiFC competition in live Drosophila embryos: VN-AbdA and ORF-CC with co-expression of the corresponding non-complementing ORF-3xHA; abdA-Gal4 driver, epidermis of stage 10/11 embryos; identical parameters of confocal acquisition"}, "[5]": {"biological_target": "CN-AbdA (AbdominalA fused to the N-terminal fragment of Cerulean) (Drosophila (D. melanogaster)) (UniProt P29555)", "test": "split reporter; bicolour BiFC in live Drosophila embryos: ORF-CC co-expressed with CN-AbdA, VN-Exd and a mCherry reporter; abdA-Gal4 driver, stage 10 embryos"}, "[6]": {"biological_target": "T2, VN-Exd (Extradenticle fused to the N-terminal fragment of Venus) (Drosophila (D. melanogaster)) (UniProt P40427)", "T2 sequence": "T1 sequence", "test": "split reporter; bicolour BiFC in live Drosophila embryos: ORF-CC co-expressed with CN-AbdA, VN-Exd and a mCherry reporter; abdA-Gal4 driver, stage 10 embryos"}},
  "note": "No constants are given. Whether binding was seen depends on the method and setting. In cells and extracts the contact can be indirect. Some results given as binding are weak or reduced against the parent protein; the word gives no strength. For some of these results: Sequences can lack the tags named with a protein.",
  "data": [
    {"substance": "CtBP fused to VN (from UniProt O46036 1-476)", "values": [
      {"measurement": "binding", "setting": "[1]", "value": "binds"}
    ]},
    {"substance": "Pox mesoderm ORF-CC (Poxm-CC) (from UniProt P23757 1-370)", "values": [
      {"measurement": "binding", "setting": "[2]", "value": "binds"},
      {"measurement": "binding", "setting": "[3]", "value": "binds"},
      {"measurement": "binding", "setting": "[4]", "value": "binds"}
    ]},
    {"substance": "Distalless fused to VN (from UniProt P20009 1-327)", "values": [
      {"measurement": "binding", "setting": "[1]", "value": "binds"}
    ]},
    {"substance": "Distalless ORF-CC (Dll-CC) (from UniProt P20009 1-327)", "values": [
      {"measurement": "binding", "setting": "[5]", "value": "binds"},
      {"measurement": "binding", "setting": "[6]", "value": "binds"}
    ]},
    {"substance": "Pox mesoderm ORF-3xHA (Poxm-HA) (from UniProt P23757 1-370)", "values": [
      {"measurement": "binding", "setting": "[4]", "value": "binds"}
    ]},
    {"substance": "CtBP ORF-CC (CtBP-CC) (from UniProt O46036 1-476)", "values": [
      {"measurement": "binding", "setting": "[5]", "value": "binds"},
      {"measurement": "binding", "setting": "[6]", "value": "binds"}
    ]}
  ]
}
